Assay results as given in the supplement of paper PMC8728848.
The other results are listed elsewhere or left out.

What was measured:
Test in all cases: glycan array binding signal (z-score within array); higher = stronger binding
Conditions in all cases: glycan notation: IUPAC condensed, linker removed
[1] = target: GlcNAc(b1-4)GlcNAc(b1-4)GlcNAc(b1-4)GlcNAc(b1-4)GlcNAc
Summary of the method: (§1)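 Glycan array data were curated from 3228 arrays in the Consortium for Functional Glycomics database and kept only where the protein sequence was available. Glycan names were converted to IUPAC-condensed notation, and columns mapping to the same glycan were averaged. The binding signal is a within-array Z-score, averaged across arrays of the same protein sequence at different concentrations or buffers and across linkers. Negative Z-scores can be read as non-binding.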

[2] = target: GlcNAc(b1-4)GlcNAc(b1-4)GlcNAc(b1-4)GlcNAc(b1-4)GlcNAc(b1-4)GlcNAc
Summary of the method: as §1

[3] = target: GlcNAc(b1-4)[GlcNAc(b1-6)]GalNAc
Summary of the method: as §1

[4] = target: GlcNAc(b1-6)Gal(b1-4)GlcNAc
Summary of the method: as §1

[5] = target: GlcNAc(b1-6)GalNAc
Summary of the method: as §1

[6] = target: GlcNAc6S(b1-3)Gal(b1-4)GlcNAc
Summary of the method: as §1

[7] = target: Kdn(a2-3)Gal(b1-3)GalNAc
Summary of the method: as §1

[8] = target: Kdn(a2-3)Gal(b1-3)GlcNAc
Summary of the method: as §1

[9] = target: Kdn(a2-3)Gal(b1-4)Glc
Summary of the method: as §1

[10] = target: Kdn(a2-3)Gal(b1-4)GlcNAc
Summary of the method: as §1

[11] = target: Kdn(a2-3)Gal(b1-4)[Fuc(a1-3)]GlcNAc
Summary of the method: as §1

[12] = target: Kdn(a2-6)Gal(b1-4)GlcNAc
Summary of the method: as §1

[13] = target: Man(a1-2)Man(a1-2)Man(a1-3)Man
Summary of the method: as §1

[14] = target: Man(a1-2)Man(a1-2)Man(a1-6)[Man(a1-3)]Man
Summary of the method: as §1

[15] = target: Man(a1-2)Man(a1-3)Man
Summary of the method: as §1

[16] = target: Man(a1-2)Man(a1-3)[Man(a1-2)Man(a1-6)]Man
Summary of the method: as §1

[17] = target: Man(a1-2)Man(a1-3)[Man(a1-2)Man(a1-6)]Man(a1-6)[Man(a1-2)Man(a1-2)Man(a1-3)]Man
Summary of the method: as §1

[18] = target: Man(a1-2)Man(a1-3)[Man(a1-2)Man(a1-6)]Man(a1-6)[Man(a1-2)Man(a1-2)Man(a1-3)]Man(b1-4)GlcNAc(b1-4)GlcNAc
Summary of the method: as §1

[19] = target: Man(a1-2)Man(a1-3)[Man(a1-6)]Man(a1-6)[Man(a1-2)Man(a1-3)]Man(b1-4)GlcNAc(b1-4)GlcNAc
Summary of the method: as §1

[20] = target: Man(a1-2)Man(a1-6)[Man(a1-3)]Man(a1-6)[Man(a1-2)Man(a1-2)Man(a1-3)]Man
Summary of the method: as §1

[21] = target: Man(a1-2)Man(a1-6)[Man(a1-3)]Man(a1-6)[Man(a1-2)Man(a1-2)Man(a1-3)]Man(b1-4)GlcNAc(b1-4)GlcNAc
Summary of the method: as §1

[22] = target: Man(a1-3)[Man(a1-6)]Man
Summary of the method: as §1

[23] = target: Man(a1-3)[Man(a1-6)]Man(a1-6)[Man(a1-2)Man(a1-3)]Man(b1-4)GlcNAc(b1-4)GlcNAc
Summary of the method: as §1

[24] = target: Man(a1-3)[Man(a1-6)]Man(a1-6)[Man(a1-3)]Man
Summary of the method: as §1

[25] = target: Man(a1-3)[Man(a1-6)]Man(a1-6)[Man(a1-3)]Man(b1-4)GlcNAc(b1-4)GlcNAc
Summary of the method: as §1

[26] = target: Man(a1-3)[Man(a1-6)]Man(b1-4)GlcNAc(b1-4)GlcNAc
Summary of the method: as §1

[27] = target: Man(a1-3)[Man(a1-6)]Man(b1-4)GlcNAc(b1-4)[Fuc(a1-6)]GlcNAc
Summary of the method: as §1

[28] = target: Man(a1-6)Man
Summary of the method: as §1

[29] = target: Man(b1-4)GlcNAc
Summary of the method: as §1

[30] = target: MurNAc(b1-4)GlcNAc
Summary of the method: as §1

[31] = target: Neu5Ac(a2-3)Gal
Summary of the method: as §1

[32] = target: Neu5Ac(a2-3)Gal(b1-3)GalNAc
Summary of the method: as §1

[33] = target: Neu5Ac(a2-3)Gal(b1-3)GalNAc(b1-3)Gal(a1-4)Gal(b1-4)Glc
Summary of the method: as §1

[34] = target: Neu5Ac(a2-3)Gal(b1-3)GalNAc(b1-4)[Neu5Ac(a2-3)]Gal(b1-4)Glc
Summary of the method: as §1

[35] = target: Neu5Ac(a2-3)Gal(b1-3)GalNAc(b1-4)[Neu5Ac(a2-8)Neu5Ac(a2-3)]Gal(b1-4)Glc
Summary of the method: as §1

[36] = target: Neu5Ac(a2-3)Gal(b1-3)GalNAc6S
Summary of the method: as §1

[37] = target: Neu5Ac(a2-3)Gal(b1-3)GlcNAc
Summary of the method: as §1

B1: AT1G77380(17) (Arabidopsis thaliana), Q39134 (protein)
chain: MVQNHQTVLAVDMPQTGGSKYLDDDGKNKRTGSVWTASAHIITAVIGSGVLSLAWATAQLGWLAGPVVMLLFSAVTYFTSSLLAACYRSGDPISGKRNYTYMDAVRSNLGGVKVTLCGIVQYLNIFGVAIGYTIASAISMMAIKRSNCFHKSGGKDPCHMNSNPYMIAFGLVQILFSQIPDFDQLWWLSILAAVMSFTYSSAGLALGIAQVVVNGKVKGSLTGISIGAVTETQKIWRTFQALGDIAFAYSYSIILIEIQDTVKSPPSEEKTMKKATLVSVSVTTMFYMLCGCMGYAAFGDLSPGNLLTGFGFYNPYWLLDIANAAIVIHLIGAYQVYCQPLFAFIEKQASIQFPDSEFIAKDIKIPIPGFKPLRLNVFRLIWRTVFVIITTVISMLLPFFNDVVGLLGALGFWPLTVYFPVEMYIAQKKIPRWSTRWVCLQVFSLGCLVVSIAAAAGSIAGVLLDLKSYKPFRSEY
[1]
  glycan array binding signal (z-score): 0.469
[2]
  glycan array binding signal (z-score): 0.585
[3]
  glycan array binding signal (z-score): 0.256
[4]
  glycan array binding signal (z-score): -0.55
[5]
  glycan array binding signal (z-score): 2.85
[6]
  glycan array binding signal (z-score): -0.347
[7]
  glycan array binding signal (z-score): -0.657
[8]
  glycan array binding signal (z-score): -0.6
[9]
  glycan array binding signal (z-score): 4.07
[10]
  glycan array binding signal (z-score): -0.514
[11]
  glycan array binding signal (z-score): 1.37
[12]
  glycan array binding signal (z-score): -0.255
[13]
  glycan array binding signal (z-score): -0.684
[14]
  glycan array binding signal (z-score): 0.036
[15]
  glycan array binding signal (z-score): -0.203
[16]
  glycan array binding signal (z-score): -0.601
[17]
  glycan array binding signal (z-score): -0.498
[18]
  glycan array binding signal (z-score): 3.3
[19]
  glycan array binding signal (z-score): -0.177
[20]
  glycan array binding signal (z-score): -0.524
[21]
  glycan array binding signal (z-score): 1.19
[22]
  glycan array binding signal (z-score): 0.006
[23]
  glycan array binding signal (z-score): 1.69
[24]
  glycan array binding signal (z-score): -0.782
[25]
  glycan array binding signal (z-score): 1.9
[26]
  glycan array binding signal (z-score): -0.727
[27]
  glycan array binding signal (z-score): -0.239
[28]
  glycan array binding signal (z-score): -0.696
[29]
  glycan array binding signal (z-score): -0.8
[30]
  glycan array binding signal (z-score): -0.617
[31]
  glycan array binding signal (z-score): -0.323
[32]
  glycan array binding signal (z-score): 0.18
[33]
  glycan array binding signal (z-score): -0.335
[34]
  glycan array binding signal (z-score): -0.105
[35]
  glycan array binding signal (z-score): 0.187
[36]
  glycan array binding signal (z-score): -0.721
[37]
  glycan array binding signal (z-score): -0.416
